Source: PubChem BioAssay AID330 (DTP/NCI, 2004)
The list does not hold the whole screen: it gathers tests that were run many times, whatever their T/C, doses with no T/C, and many T/C values between a quarter and a half above the control. Other doses and runs of a compound stand elsewhere. T/C is the treated group as % of the vehicle group. Some doses have a count of surviving animals in place of a T/C: the source holds a T/C of zero for them, seemingly a mark for toxic or unscored doses. Some doses without a T/C left all or most animals alive at the check, yet need not have been tolerated: the source hardly ever lists a survival T/C far under the control, and the zero likely stands for such cases as well. Survivors were counted at the toxicity check, usually on the fifth day, unless a day is given; later deaths do not show. Schedules are NCI's codes, read here as Q, the interval in days (D) or hours (H), X, the number of doses. Some entries were tested several times; their values stand side by side, smallest first. For survival time, the PubChem record calls one and a half times the control and up active, and a quarter to a half above the control has no call in these data; cut-offs in other NCI protocols can differ.

System: P388 leukemia ip, CD2F1 mice, survival T/C
Test: NCI In Vivo Anticancer Drug Screen. Data for tumor model P388 Leukemia (intraperitoneal) in CD2F1 (CDF1) mice
Conditions: T/C endpoint: median survival time, higher T/C = longer survival
[1] = dose: 200.0 mg/kg/injection, schedule: Q04DX003 (ip), vehicle: saline with Tween-80
[2] = dose: 200.0 mg/kg/injection, schedule: Q01DX009 (ip), vehicle: saline with Tween-80

In the case of `CCN(CC)CCNC(=O)c1nn(-c2ccc(Cl)cc2)c2c1CCc1cc(OC)ccc1-2`, the survivor count (dose: 100.0 mg/kg/injection, schedule: Q04DX003 (ip), vehicle: saline with Tween-80) is reported as 6 of 6, the survivor count [1] is reported as 0 of 6 and the survivor count (dose: 400.0 mg/kg/injection, schedule: Q04DX003 (ip), vehicle: saline with Tween-80) is reported as 0 of 6.
With `Cc1c(C)c2ccc(OCCCN3CCN(Cc4ccc(Cl)cc4)CC3)cc2oc1=O` the survivor count (dose: 200.0 mg/kg/injection, schedule: Q01DX009 (ip), vehicle: suspension in saline) was 2 of 6.
With `CCCCNc1ccc(C(=O)OC2CCN(C)CC2)c(Cl)c1` the survivor count (dose: 1.56 mg/kg/injection, schedule: Q01DX009 (ip), vehicle: saline with Tween-80) was 5 of 5, the T/C (dose: 3.12 mg/kg/injection, schedule: Q01DX009 (ip), vehicle: saline with Tween-80) was 99, 111, 113, 118 % of control and the T/C (dose: 6.25 mg/kg/injection, schedule: Q01DX009 (ip), vehicle: saline with Tween-80) was 94, 111, 119, 120 % of control. The survivor count (dose: 50.0 mg/kg/injection, schedule: Q01DX009 (ip), vehicle: saline with Tween-80) was 0 of 6, the survivor count (dose: 100.0 mg/kg/injection, schedule: Q01DX009 (ip), vehicle: saline with Tween-80) was 0 of 6 and the survivor count [2] was 0 of 6.
In the case of `Cc1ccc(S(=O)(=O)NCCCCCCNS(=O)(=O)c2ccc(C)cc2)cc1`, the survivor count (dose: 100.0 mg/kg/injection, schedule: Q01DX005 (ip), vehicle: Klucel (hydroxypropylcellulose) (HPC)) is reported as 6 of 6 and the survivor count (dose: 400.0 mg/kg/injection, schedule: Q01DX005 (ip), vehicle: Klucel (hydroxypropylcellulose) (HPC)) is reported as 5 of 6 and 6 of 6.
For `Cc1nc2sccn2c1C(N)=O`, the survivor count (dose: 240.0 mg/kg/injection, schedule: Q01DX005 (ip), vehicle: Klucel (hydroxypropylcellulose) (HPC)) was 0 of 6.
In the case of `CCOP(=S)(N1CC1(C)C)N1CC1(C)C` (stereo not drawn), the survivor count [2] is reported as 4 of 6, the T/C [1] is reported as 127 % of control and the survivor count (dose: 400.0 mg/kg/injection, schedule: Q01DX009 (ip), vehicle: saline with Tween-80) is reported as 1 of 6. The survivor count (dose: 600.0 mg/kg/injection, schedule: Q04DX003 (ip), vehicle: saline with Tween-80) was 5 of 6.
With `CN(CCCCN(C)CCOS(C)(=O)=O)CCOS(C)(=O)=O` the T/C (dose: 0.03 mg/kg/injection, schedule: Q01DX009 (ip), vehicle: saline) was 129 % of control, the T/C (dose: 0.15 mg/kg/injection, schedule: Q01DX009 (ip), vehicle: saline) was 134 % of control and the survivor count (dose: 0.2 mg/kg/injection, schedule: Q01DX009 (ip), vehicle: saline) was 6 of 6. The survivor count (dose: 2.5 mg/kg/injection, schedule: Q01DX009 (ip), vehicle: saline) was 6 of 6, the survivor count (dose: 5.0 mg/kg/injection, schedule: Q01DX009 (ip), vehicle: saline) was 5 of 6 and the survivor count (dose: 20.0 mg/kg/injection, schedule: Q04DX003 (ip), vehicle: saline) was 5 of 6.
